Experimental data taken from the supplement of paper PMC11542785.
Counter-ions that a name gives are not always drawn. The list shows a part of the results. Most values come without repeats; read them as rough.

System: Drosophila melanogaster DPAGT1 (Alg7) RNAi eye model
Test: eye size Z-score vs DMSO-treated DPAGT1 model flies; higher = larger eye (suppression of DPAGT1 phenotype)
Conditions: 5 uM

## C[C@]12CC[C@@H]3c4ccc(O)cc4C[C@@H](CCCCCCCCC[S+]([O-])CCCC(F)(F)C(F)(F)F)[C@H]3[C@@H]1CC[C@@H]2O (stereo partly specified) [Fulvestrant]
  eye size Z-score: 0.53

## O=C(NCCCN1CCOCC1)c1ccc(Cl)cc1 [Eprobemide]
  eye size Z-score: 0.51

## CO/N=C(\C(=O)N[C@@H]1C(=O)N2C(C(=O)O)=C(COC(C)=O)CS[C@H]12)c1csc(N)n1 [Cefotaxime sodium salt]
  eye size Z-score: -0.72

## C/C(=C1\CCOC(=O)S1)N(C=O)Cc1cnc(C)nc1N [Cycotiamine]
  eye size Z-score: 1.2

## CCCCOc1cc(C(=O)OCCN(CC)CC)ccc1N [Benoxinate hydrochloride]
  eye size Z-score: -0.44

## Clc1ccc2nsnc2c1NC1=NCCN1 [Tizanidine hydrochloride]
  eye size Z-score: -0.1

## CC(C)Oc1ccc2c(=O)c(-c3ccccc3)coc2c1 [Ipriflavone]
  eye size Z-score: 0.23

## Cc1cc2cc3c(C)cc(=O)oc3c(C)c2o1 [Trioxsalen]
  eye size Z-score: -0.15

## CC(=O)Nc1nnc(S(N)(=O)=O)s1 [Acetazolamide]
  eye size Z-score: 0.78

## CNCC(O)c1ccc(O)c(O)c1 (stereo unspecified) [Racepinephrine hydrochloride]
  eye size Z-score: 0.15

## CCOC1O[C@H]([C@@H](COCc2ccccc2)OCc2ccccc2)[C@H](OCc2ccccc2)[C@H]1O (stereo partly specified) [Tribenoside]
female
  eye size Z-score: 1.18

## CC(=O)Nc1c(I)c(C(=O)N[C@H]2C(O)O[C@H](CO)[C@@H](O)[C@@H]2O)c(I)c(N(C)C(C)=O)c1I (stereo partly specified) [Metrizamide]
  eye size Z-score: -0.36

## CCN(CC)CCNC(=O)c1ccc(N)cc1 [Procainamide hydrochloride]
  eye size Z-score: -0.03

## CCCCCCOc1ccccc1C(N)=O [Exalamide]
  eye size Z-score: 0.25

## C[C@@H]1CCC[C@H](C)N1NC(=O)c1ccc(Cl)c(S(N)(=O)=O)c1 [Clopamide]
  eye size Z-score: -0.37

## CC[C@H]1OC(=O)[C@H](C)[C@@H](O[C@H]2C[C@@](C)(OC)[C@@H](O)[C@H](C)O2)[C@H](C)[C@@H](O[C@@H]2O[C@H](C)C[C@H](N(C)C)[C@H]2O)[C@](C)(O)C[C@@H](C)CN(C)[C@H](C)[C@@H](O)[C@]1(C)O [Azithromycin]
  eye size Z-score: 0.37

## CN[C@H]1CC[C@@H](c2ccc(Cl)c(Cl)c2)c2ccccc21 [Sertraline]
  eye size Z-score: 1.06

## CC(CNC1CCCCC1)OC(=O)c1ccccc1 (stereo unspecified) [Hexylcaine hydrochloride]
  eye size Z-score: 1.06

## Nc1ccc(S(=O)(=O)Nc2nccs2)cc1 [Sulfathiazole]
  eye size Z-score: 0.12

## Cc1ccc(-c2cc(C(F)(F)F)nn2-c2ccc(S(N)(=O)=O)cc2)cc1 [Celecoxib]
  eye size Z-score: -0.03

## CC12CC3CC(C)(C1)CC(N)(C3)C2 [Memantine hydrochloride]
  eye size Z-score: 0.83
